The results in this text go back to paper PMC10783636, “Chlorophyll biosynthesis under the control of arginine metabolism” (Cell Reports, 2023).

This assay has as its target T1, 3×FLAG-tagged ArgD (N-acetylornithine aminotransferase) of Synechocystis sp. PCC 6803 (Synechocystis sp. PCC 6803) (UniProt P73133).
T1 sequence: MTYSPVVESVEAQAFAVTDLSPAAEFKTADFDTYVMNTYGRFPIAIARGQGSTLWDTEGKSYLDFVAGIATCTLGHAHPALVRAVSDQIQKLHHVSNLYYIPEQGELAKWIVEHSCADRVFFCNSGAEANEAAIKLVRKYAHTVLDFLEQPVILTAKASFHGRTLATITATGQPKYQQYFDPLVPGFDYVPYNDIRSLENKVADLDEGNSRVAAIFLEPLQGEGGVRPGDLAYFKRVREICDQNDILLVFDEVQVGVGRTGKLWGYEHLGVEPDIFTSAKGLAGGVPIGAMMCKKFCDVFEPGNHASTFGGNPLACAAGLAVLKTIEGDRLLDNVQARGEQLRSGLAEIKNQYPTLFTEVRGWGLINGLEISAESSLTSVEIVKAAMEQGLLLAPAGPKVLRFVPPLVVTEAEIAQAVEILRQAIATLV
The experiment in a line: co-IP; f.ArgD or f.AstC purified from the soluble fraction of Synechocystis strains (ΔargD or ΔcphB background; cells with nitrate, without or with 1 mM Orn for 24 h) on anti-FLAG M2 gel, eluted with 3xFLAG peptide; SDS-PAGE, stained, blotted and probed with anti-Gun4 and anti-CphB.

Results are given in words; binding and its absence hold for the method and conditions named. Binding seen in cells or lysates may run through a third protein. A result given as binding can be weak or reduced; the word gives no strength. Tags and fused reporters may be left off the sequences shown.

Regarding “Gun4 protein of Synechocystis sp. PCC 6803 (native)”, the binding result is listed as “binds”.
